Assay results as given in PMC7979925.
Positions count from the first letter of the chain named. Results are given in words; binding and its absence hold for the method and conditions named. Binding seen in cells or lysates may run through a third protein. Some results given as binding are weak or reduced against the parent protein; the word gives no strength.

The chains behind the UniProt entries cited, without tags or fusion partners.
UniProt A0A3L7IGC1: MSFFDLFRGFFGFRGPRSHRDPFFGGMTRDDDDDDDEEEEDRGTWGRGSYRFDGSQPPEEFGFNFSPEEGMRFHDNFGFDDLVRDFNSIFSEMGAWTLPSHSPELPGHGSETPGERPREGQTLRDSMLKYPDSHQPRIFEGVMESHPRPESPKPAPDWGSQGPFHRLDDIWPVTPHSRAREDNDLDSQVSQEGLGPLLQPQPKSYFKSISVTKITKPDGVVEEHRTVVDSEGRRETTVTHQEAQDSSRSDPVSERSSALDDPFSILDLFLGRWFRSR

How the values were obtained:
[1] = target: T1, G592R Kv3.3 mutant channel (UniProt Q14003); experiment: condition: only cells preincubated for 30 min with 10 μM MRT67307 (TBK1 inhibitor); co-IP; as a1, but cells preincubated for 30 min with 10 μM MRT67307 (TBK1 inhibitor) before lysis
T1 sequence: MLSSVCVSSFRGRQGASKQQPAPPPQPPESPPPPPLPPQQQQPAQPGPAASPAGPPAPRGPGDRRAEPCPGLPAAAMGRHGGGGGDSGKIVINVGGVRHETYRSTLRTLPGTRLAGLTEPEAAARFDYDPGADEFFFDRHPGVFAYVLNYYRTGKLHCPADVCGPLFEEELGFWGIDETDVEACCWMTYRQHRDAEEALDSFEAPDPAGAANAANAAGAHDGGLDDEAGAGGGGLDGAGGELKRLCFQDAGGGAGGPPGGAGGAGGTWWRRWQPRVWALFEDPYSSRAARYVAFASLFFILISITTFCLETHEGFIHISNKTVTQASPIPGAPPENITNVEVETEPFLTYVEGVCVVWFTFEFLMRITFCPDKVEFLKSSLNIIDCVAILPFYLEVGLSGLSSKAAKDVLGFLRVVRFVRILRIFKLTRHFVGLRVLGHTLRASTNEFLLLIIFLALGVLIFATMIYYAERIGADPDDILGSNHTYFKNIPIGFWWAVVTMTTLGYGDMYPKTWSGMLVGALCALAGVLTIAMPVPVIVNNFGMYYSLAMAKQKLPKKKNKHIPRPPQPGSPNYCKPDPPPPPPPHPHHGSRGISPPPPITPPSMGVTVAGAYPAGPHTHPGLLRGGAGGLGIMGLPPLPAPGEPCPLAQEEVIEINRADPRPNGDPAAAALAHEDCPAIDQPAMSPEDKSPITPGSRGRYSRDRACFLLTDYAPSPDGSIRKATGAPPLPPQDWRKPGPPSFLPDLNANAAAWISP

[2] = target: T2, wild type Kv3.3 potassium channel (UniProt Q14003); experiment: as above
T2 sequence: T1 sequence with R592G

[3] = target: T1, G592R Kv3.3 mutant channel; experiment: co-IP; lysates of CHO cells expressing Kv3.3 constructs (25 mM Tris-HCl pH 7.4, 150 mM NaCl, 1% NP-40, 1 mM EDTA, 5% glycerol); primary antibody overnight at 4 °C, protein A/G beads 2 h at 4 °C, six washes; Western blot
[4] = target: T2, wild type Kv3.3 potassium channel; experiment: as above

Hax-1 (from UniProt A0A3L7IGC1 1-277) was tested, and the binding [1] was “no binding”, the binding [2] was “no binding” and the binding [3] was “binds”. For the same substance, the binding [4] was “binds”.
